At least one structure is not confirmed: it was looked up by name or label, or the drawing left a doubt.
Test system: SKmel 28 cell line in zebrafish
Assay: Zebrafish xenotransplant with SKmel28 cell line
Assay type: in vivo
Details: SKmel28, embryos with metastasis counted 5 days post injection
Experimental: FIG. 12. […] SKMel28 melanoma cell line was treated with XYZ, DTIC, the peptide in combination with DTIC, or left untreated. They were stained with Vibrant Cell Labelling Solution (red) and injected into the yolk of transparent zebrafish larvae and monitored. The number of embryos with metastasis was counted at 5 days post injection.
Zebrafish handling was performed at the Zebrafish Centre of the University of Padova, Italy, under ethical committee (OPBA) authorization 407/2015-PR. Zebrafish embryos were obtained from natural spawning of albino adults, raised following standard protocols (Westerfield, M et al., 2000) and staged according to Kimmel et al. (1995). […] Zebrafishes were monitored daily and documented from 1 day post injection (dpi) up to 1 week (experimental endpoint). […]
For xenotransplantation, albino embryos were mechanically dechorionated at 2 days post-fertilisation, anesthetized with tricaine 0.16 mg/ml and placed along plastic lanes immersed in 2% methylcellulose/PBS. […] Stained cells were loaded in a glass capillary needle and microinjected into the yolk (about 50 cells/embryo), Xenotransplanted embryos were monitored daily and documented from one day post injection up to one week.

CN(C)/N=N/c1[nH]cnc1C(N)=O [DTIC, dacarbazine, reference compound]
full metastasis in xenotransplanted zebrafish: reduces full metastasis
